Laboratory results: PubChem BioAssay AID2685 (National Center for Advancing Translational Sciences (NCATS), 2010)
Hit rate of the full screen: of about 320,000 compounds, about 2,100 (0.66%) were called active. The inconclusive results got no clear call from the source; some entries with a clear call stand among them for comparison. The call rests on the fitted dose curve; in most records, active means well fitted inhibition curve with a large enough effect in the signal ratio, with a control signal flat (not every such curve was filed as active); inconclusive means small, poorly fitted or top-dose-only effect, or effect the other way, or a change in a side signal; inactive means flat fitted curve, though single readings scatter; the % refers to the signal ratio. A potency beside an inconclusive call is a rough fit, not a confirmed value.

Assay: qHTS Assay for Lipid Storage Modulators in Drosophila S3 Cells
Conditions: BODIPY lipid droplet fluorescence, 18-24 h, cells fed with added oleic acid; lipid storage change, negative = inhibition: at 46.1 µM (top of the series) unless noted
Outline: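 Laser-scanning cytometry quantifies lipid droplet accumulation (500–530 nm total intensity; droplet/cell object ratio) in oleic acid-fed (400 uM added) Drosophila S3 cells treated with a concentration series. 20 uM Triacsin C defined 100% inhibition.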
On the % scale 0 is the no-effect control and ±100 the full control effect; potency means the concentration at half of the fitted maximal effect.

Structure (SMILES) | lipid storage change, negative = inhibition | Potency
CCOc1ccc(CNc2ccc(N3CCOCC3)c(C(=O)O)c2)cc1 | inconclusive: 19.5% | –
COc1ccc(/C=C2/CCc3ccccc3C2=O)cc1OC | – | inconclusive: 1.84 µM [activator, full curve]
CCn1cc(Cl)c(C(=O)Nc2nc3ccccc3n2CCN2CCCCC2)n1 | inconclusive: 3.13% | –
Cc1c(O[C@@H]2O[C@H](CO)[C@@H](O)[C@H](O)[C@H]2O)ccc2c1oc(=O)c1ccccc12 | inconclusive: 14.7% | –
O=C1NC(CCc2ccccc2)C(=O)N1Cc1ccc(Br)cc1 (stereo not given) | inconclusive: 9.65% | –
COc1ccc2oc(C(=O)Nc3nc4ccccc4[nH]3)c(C)c2c1 | inconclusive: -49.3% | –
CN1C(=O)C(C)(C)c2cc(S(=O)(=O)N3CCC(C(=O)NCc4ccccc4Cl)CC3)ccc21 | – | inconclusive: 16.4 µM [falling, single point]
Clc1ccc(CSc2nnc(-c3ccccn3)n2Cc2ccco2)c(Cl)c1 | – | inconclusive: 29.1 µM [falling, single point]
Cc1cc(N2CCN(c3ccc(C(F)(F)F)cc3[N+](=O)[O-])CC2)c2ccccc2n1 | inconclusive: -100% | –
C=C(C)CNC(=S)N/N=C/C1=CCC2CC1C2(C)C (stereo not given) | inconclusive: -23.1% | –
Cc1cccc(-n2cnc(C(=O)N/N=C/c3ccccc3)c2)n1 | – | inconclusive: 2.06 µM [rising, partial curve]
COc1ccccc1NS(=O)(=O)c1cc(NC(=O)c2cc3ccccc3oc2=O)ccc1C | – | inconclusive: 2.06 µM [activator, single point]
CCOc1ccc(S(=O)(=O)N2CCC(C(=O)NCCc3ccccc3)CC2)cc1 | – | inconclusive: 29.1 µM [falling, single point]
Cc1ccc2cc(C(c3nnnn3C3CCCC3)N(Cc3cccnc3)Cc3ccco3)c(=O)[nH]c2c1 (stereo not given) | – | inconclusive: 2.91 µM [activator, partial curve]
CCOC(=O)c1sc2nc(CC(=O)OC)nc(N3CCN(c4ccccn4)CC3)c2c1C | inconclusive: -18.6% | –
CCOC(=O)c1cnc(-n2nc(C)cc2C)nc1Nc1ccccc1OC | inconclusive: -3.09% | –
CCN(C(=O)COc1cc(=O)n(C)c2ccccc12)c1cccc(Cl)c1 | inconclusive: 18% | –
Cn1cc(CN2CCC(CO)CC2)c(-c2ccc(Oc3ccccc3)cc2)n1 | inactive: 15.5% | –
COc1ccc(S(=O)(=O)NN(C)c2nc(C(F)(F)F)nc3ccccc23)cc1 | inconclusive: -11% | –
O=C(Cc1ccccc1)NCC(=O)N/N=C/c1ccc([N+](=O)[O-])s1 | – | active: 16.4 µM

Single values from the list:
`CCn1cc(Cl)c(C(=O)Nc2nc3ccccc3n2CCN2CCCCC2)n1` – lipid storage change, negative = inhibition: inconclusive: 3.13%
`Cc1cccc(-n2cnc(C(=O)N/N=C/c3ccccc3)c2)n1` – Potency: inconclusive: 2.06 µM [rising, partial curve]
